Values of other authors in patent US7705022B2, “IDO inhibitors and methods of use thereof” (Lankenau Institute for Medical Research, priority 2005, dated 2010).
At least one structure is not confirmed: it was looked up by name or label, or the drawing left a doubt.

System: IDO
Settings: literature report; cited from earlier work

CCN(CC)C(=S)S [diethyldithiocarbamate]
effect on IDO in words: IDO acceleration
